# Test results as given in the supplement of paper PMC8728848.
# This is one part of the list.
# B1: his-Lectin-24A (Drosophila melanogaster) (protein)
# chain: MFRLSVLVLNLLLVSHEFSAGTAKIEIQPLPALCNGYCFPTLKPVMEYVAIHQDKWNTCTEILANEARKDQIQLNIQLDALKADVSNIKASQLSKDEKLDRMEREQFAMHESLETINRYLTVKLDRTKLQLEAIKNTMDYMKAQMDGYFSAINGVQCLQPGFEKIGDRYFYIEEDVELNWLDAQAKCRRMGGHLASIKTKQEFDAIVEKLDDSKSYFLGVNENTKTGDFVSAASGKSCLYHEWGPGEPHHNNDQERCVSILRKLMHVGNCTYEKRFICQYGI
# What was measured:
# [1] = target: Neu5Gc(a2-8)Neu5Gc(a2-6)Gal(b1-4)GlcNAc; test: glycan array binding signal (z-score within array); higher = stronger binding; settings: glycan notation: IUPAC condensed, linker removed
# Outline: (§1)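 Arrays were curated from the Consortium for Functional Glycomics database, 3228 in total, and kept only where the protein sequence was available. Binding is expressed as a within-array Z-score. This score was averaged across arrays of the same protein sequence at different concentrations or buffers and across linkers, and negative values can be read as non-binding.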
# [2] = target: Neu5Gc(b2-6)Gal(b1-4)GlcNAc; test: as above; settings: glycan notation: IUPAC condensed, linker removed
# Outline: as §1
binder,measurement,setting,value
B1,glycan array binding signal (z-score),[1],1.13
same,glycan array binding signal (z-score),[2],-0.429
